Measurements from patent publication US20080146606A1, “NOVEL COMPOUNDS” (priority 2006, published 2008).
Some results were stated once for a whole list of compounds, not compound by compound.

Biological target: T1, Recombinant human IKKβ (residues 5-756) (Homo sapiens, UniProt O14920)
T1 construct: Recombinant human IKKβ (residues 5-756); GST (C); made in house
T1 sequence (O14920 5-756): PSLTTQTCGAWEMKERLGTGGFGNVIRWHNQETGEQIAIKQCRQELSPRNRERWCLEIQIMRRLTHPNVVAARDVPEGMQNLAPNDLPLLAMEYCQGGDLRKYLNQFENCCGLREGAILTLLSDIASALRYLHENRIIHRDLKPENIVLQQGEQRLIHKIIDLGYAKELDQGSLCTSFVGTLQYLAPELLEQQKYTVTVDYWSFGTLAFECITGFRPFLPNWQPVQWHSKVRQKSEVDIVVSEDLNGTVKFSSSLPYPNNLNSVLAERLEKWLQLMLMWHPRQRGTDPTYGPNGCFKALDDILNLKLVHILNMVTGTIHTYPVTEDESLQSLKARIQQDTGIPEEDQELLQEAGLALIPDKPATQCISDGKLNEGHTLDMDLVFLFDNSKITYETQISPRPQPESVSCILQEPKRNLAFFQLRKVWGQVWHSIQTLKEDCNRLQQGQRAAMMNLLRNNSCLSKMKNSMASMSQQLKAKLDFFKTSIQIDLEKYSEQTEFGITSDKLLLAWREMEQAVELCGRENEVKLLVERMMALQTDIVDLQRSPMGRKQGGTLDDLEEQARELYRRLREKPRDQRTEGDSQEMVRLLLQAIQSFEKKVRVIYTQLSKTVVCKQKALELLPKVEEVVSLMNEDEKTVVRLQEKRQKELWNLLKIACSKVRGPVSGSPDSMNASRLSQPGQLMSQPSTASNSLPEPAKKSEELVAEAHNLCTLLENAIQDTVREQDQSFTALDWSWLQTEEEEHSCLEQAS
Test: IKK2 assay (TR-FRET)
Format: biochemical

SMILES | pIC50 potency against IKK2
CCc1cc2c(-c3ccc(S(=O)(=O)NCCO)cc3)ccnc2[nH]1.O=C(O)C(F)(F)F [Example 119, 4-(2-ethyl-1H-pyrrolo[2,3-b]pyridin-4-yl)-N-(2-hydroxyethyl)benzenesulfon-amide trifluoroacetate] | ≥ 5.0
CC(O)c1cc2c(-c3ccc(S(=O)(=O)NCCO)cc3)ccnc2[nH]1.O=C(O)C(F)(F)F (stereo not shown) [Example 92, N-(2-hydroxyethyl)-4-[2-(1-hydroxyethyl)-1H-pyrrolo[2,3-b]pyridin-4-yl]benzenesulfonamide trifluoroacetate] | ≥ 5.0
Cc1cc2c(-c3ccc(S(=O)(=O)NC(C)C(C)(C)O)cc3)ccnc2[nH]1 (stereo not shown) [Example 248, N-(2-hydroxy-1,2-dimethylpropyl)-4-(2-methyl-1H-pyrrolo[2,3-b]pyridin-4-yl)benzenesulfonamide] | ≥ 5.0
Cc1cc2c(-c3ccc(S(=O)(=O)NC(C)(C)CO)cc3)ccnc2[nH]1 [Example 203, N-(2-hydroxy-1,1-dimethylethyl)-4-(2-methyl-1H-pyrrolo[2,3-b]pyridin-4-yl)benzenesulfonamide] | ≥ 5.0
COC(=O)Cc1ccc(OCc2cc3c(-c4ccc(S(=O)(=O)N5CCCC5)cc4)ccnc3[nH]2)cc1.O=C(O)C(F)(F)F [Example 39, methyl {4-[({4-[4-(1-pyrrolidinylsulfonyl)phenyl]-1H-pyrrolo[2,3-b]pyridin-2-yl}methyl)oxy]phenyl}acetate trifluoroacetate] | ≥ 5.0
NCCCNS(=O)(=O)c1ccc(-c2ccnc3[nH]c(C(F)F)cc23)cc1.O=CO [Example 180, formic acid -N-(3-aminopropyl)-4-[2-(difluoromethyl)-1H-pyrrolo[2,3-b]pyridin-4-yl]benzenesulfonamide (1:1)] | ≥ 5.0
CC(C)c1cc2c(-c3ccc(S(=O)(=O)NC4CCNCC4)cc3)ccnc2[nH]1.O=CO [Example 141, formic acid - 4-[2-(1-methylethyl)-1H-pyrrolo[2,3-b]pyridin-4-yl]-N-4-piperidinylbenzenesulfonamide] | ≥ 5.0
O=C(O)C(F)(F)F.O=S(=O)(c1ccc(-c2ccnc3[nH]c(CNCc4ccccc4)cc23)cc1)N1CCCC1 [Example 32, (phenylmethyl)({4-[4-(1-pyrrolidinylsulfonyl)phenyl]-1H-pyrrolo[2,3-b]pyridin-2-yl}methyl)amine trifluoroacetate] | ≥ 5.0
O=C(O)C(F)(F)F.O=S(=O)(c1ccc(-c2ccnc3[nH]c(CN4CCC(N5CCCCC5)CC4)cc23)cc1)N1CCCC1 [Example 29, 1′-({4-[4-(1-pyrrolidinylsulfonyl)phenyl]-1H-pyrrolo[2,3-b]pyridin-2-yl}methyl)-1,4′-bipiperidine trifluoroacetate] | ≥ 5.0
O=C(O)C(F)(F)F.O=S(=O)(c1ccc(-c2ccnc3[nH]c(Cn4cccn4)cc23)cc1)N1CCCC1 [Example 53, 2-(1H-pyrazol-1-ylmethyl)-4-[4-(1-pyrrolidinylsulfonyl)phenyl]-1H-pyrrolo[2,3-b]pyridine trifluoroacetate] | ≥ 5.0
Cc1cc2c(-c3ccc(S(=O)(=O)N(C)C4CCN(C)CC4)cc3)ccnc2[nH]1.O=C(O)C(F)(F)F [Example 155, N-methyl-N-(1-methyl-4-piperidinyl)-4-(2-methyl-1H-pyrrolo[2,3-b]pyridin-4-yl)benzenesulfonamidetrifluoroacetate] | ≥ 5.0
N[C@H]1CCCC[C@@H]1NS(=O)(=O)c1ccc(-c2ccnc3[nH]c(C(F)(F)F)cc23)cc1 (relative stereo) [Example 230, rel-N-[(1R,2R)-2-aminocyclohexyl]-4-[2-(trifluoromethyl)-1H-pyrrolo[2,3-b]pyridin-4-yl]benzenesulfonamide] | ≥ 5.0
O=C(O)C(F)(F)F.O=S(=O)(c1ccc(-c2ccnc3[nH]c(COc4ccncc4)cc23)cc1)N1CCCC1 [Example 41, 2-[(4-pyridinyloxy)methyl]-4-[4-(1-pyrrolidinylsulfonyl)phenyl]-1H-pyrrolo[2,3-b]pyridine trifluoroacetate] | ≥ 5.0
Cc1cc2c(-c3ccc(S(=O)(=O)NCCCO)cc3)ccnc2[nH]1.O=C(O)C(F)(F)F [Example 86, N-(3-hydroxypropyl)-4-(2-methyl-1H-pyrrolo[2,3-b]pyridin-4-yl)benzenesulfonamide trifluoroacetate] | ≥ 5.0
CN(C)Cc1cc2c(-c3ccc(S(=O)(=O)N[C@H]4CCS(=O)(=O)C4)cc3)ccnc2[nH]1 [Example 254, 4-{2-[(dimethylamino)methyl]-1H-pyrrolo[2,3-b]pyridin-4-yl}-N-[(3S)-1,1-dioxidotetrahydro-3-thienyl]benzenesulfona-mide] | ≥ 5.0
CC(C)C[C@H](CO)NS(=O)(=O)c1ccc(-c2ccnc3[nH]c(C4CC4)cc23)cc1 [Example 213, 4-(2-cyclopropyl-1H-pyrrolo[2,3-b]pyridin-4-yl)-N-[(1R)-1-(hydroxymethyl)-3-methylbutyl]benzene-sulfonamide] | ≥ 5.0
O=S(=O)(N[C@@H]1CCC[C@H]1O)c1ccc(-c2ccnc3[nH]c(C4CC4)cc23)cc1 [Example 216, 4-(2-cyclopropyl-1H-pyrrolo[2,3-b]pyridin-4-yl)-N-[(1R,2R)-2-hydroxycyclopentyl]benzenesulfonamide] | ≥ 5.0
O=S(=O)(c1ccc(-c2ccnc3[nH]c(Cc4ccccc4)cc23)cc1)N1CCCC1 [Example 9, 2-(Phenylmethyl)-4-[4-(1-pyrrolidinylsulfonyl)phenyl]-1H-pyrrolo[2,3-b]pyridine] | ≥ 5.0
O=C(O)C(F)(F)F.O=S(=O)(c1ccc(-c2ccnc3[nH]c(Cn4cccc4)cc23)cc1)N1CCCC1 [Example 56, 4-[4-(1-pyrrolidinylsulfonyl)phenyl]-2-(1H-pyrrol-1-ylmethyl)-1H-pyrrolo[2,3-b]pyridine trifluoroacetate] | ≥ 5.0
CS(=O)(=O)Nc1ccc(-c2ccnc3[nH]c(CC(=O)NCCN)cc23)cc1.O=C(O)C(F)(F)F [Example 27, N-(2-aminoethyl)-2-(4-{4-[(methylsulfonyl)amino]phenyl}-1H-pyrrolo[2,3-b]pyridin-2-yl)acetamide trifluoroacetate] | ≥ 5.0
CC1(c2cc3c(-c4ccc(S(=O)(=O)NC5CCS(=O)(=O)CC5)cc4)ccnc3[nH]2)CC1 [Example 260, N-(1,1-Dioxidotetrahydro-2H-thiopyran-4-yl)-4-[2-(1-methylcyclopropyl)-1H-pyrrolo[2,3-b]pyridin-4-yl]benzenesulfonamide] | ≥ 5.0
O=C(Cc1cc2c(-c3ccc(S(=O)(=O)N4CCCC4)cc3)ccnc2[nH]1)N1CCCC1.O=C(O)C(F)(F)F [Example 96, 2-[2-oxo-2-(1-pyrrolidinyl)ethyl]-4-[4-(1-pyrrolidinylsulfonyl)phenyl]-1H-pyrrolo[2,3-b]pyridine trifluoroacetate] | ≥ 5.0
O=C(Cc1cc2c(-c3ccc(S(=O)(=O)NC4CCS(=O)(=O)C4)cc3)ccnc2[nH]1)N1CCCC1 (stereo not shown) [Example 74, N-(1,1-Dioxidotetrahydro-3-thienyl)-4-{2-[2-oxo-2-(1-pyrrolidinyl)ethyl]-1H-pyrrolo[2,3-b]pyridin-4-yl}benzenesulfonamide] | ≥ 5.0
O=C(O)C(F)(F)F.O=S(=O)(NCCO)c1ccc(-c2ccnc3[nH]c(C(F)F)cc23)cc1 [Example 183, 4-[2-(Difluoromethyl)-1H-pyrrolo[2,3-b]pyridin-4-yl]-N-(2-hydroxyethyl)benzenesulfonamide trifluoroacetate] | ≥ 5.0
COc1cccc(NC(=O)Cc2cc3c(-c4ccc(S(=O)(=O)NC5CCS(=O)(=O)C5)cc4)ccnc3[nH]2)c1 (stereo not shown) [Example 73, 2-[4-(4-{[(1,1-Dioxidotetrahydro-3-thienyl)amino]sulfonyl}phenyl)-1H-pyrrolo[2,3-b]pyridin-2-yl]-N-[3-(methyloxy)phenyl]acetamide] | ≥ 5.0
CC(C)[C@H](CO)NS(=O)(=O)c1ccc(-c2ccnc3[nH]c(C(F)(F)F)cc23)cc1 [Example 224, N-[(1R)-1-(hydroxymethyl)-2-methylpropyl]-4-[2-(trifluoromethyl)-1H-pyrrolo[2,3-b]pyridin-4-yl]benzenesulfonamide] | ≥ 5.0
CCC(O)CNS(=O)(=O)c1ccc(-c2ccnc3[nH]c(C4CC4)cc23)cc1 (stereo not shown) [Example 220, 4-(2-cyclopropyl-1H-pyrrolo[2,3-b]pyridin-4-yl)-N-(2-hydroxybutyl)benzenesulfonamide] | ≥ 5.0
CN(Cc1cc2c(-c3ccc(S(=O)(=O)N4CCCC4)cc3)ccnc2[nH]1)S(=O)(=O)c1ccccc1.O=C(O)C(F)(F)F [Example 44, N-methyl-N-({4-[4-(1-pyrrolidinylsulfonyl)phenyl]-1H-pyrrolo[2,3-b]pyridin-2-yl}methyl)benzenesulfonamide trifluoroacetate] | ≥ 5.0
